These results are taken from publication PMC7819943, “Rice protein-binding microarrays: a tool to detect cis-acting elements near promoter regions in rice”.

Amino acid sequences for entries named in this document (tags omitted).
UniProt Q0JBA9, entry or part of it: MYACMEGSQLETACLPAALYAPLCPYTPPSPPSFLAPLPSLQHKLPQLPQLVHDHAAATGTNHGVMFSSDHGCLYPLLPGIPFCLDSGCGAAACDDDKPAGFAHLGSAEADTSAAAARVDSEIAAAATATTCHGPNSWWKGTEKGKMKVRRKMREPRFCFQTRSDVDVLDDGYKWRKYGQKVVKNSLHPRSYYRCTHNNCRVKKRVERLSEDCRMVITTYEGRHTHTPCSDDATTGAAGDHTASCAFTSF

This is one part of the list.

This experiment addresses OsWRKY34 (Oryza sativa, UniProt Q0JBA9 1-250). Kind of experiment: protein-binding microarray (RPBM); PBS, 2% BSA, 51.3 ng/ul salmon testes DNA, 50 uM zinc acetate, 200 nM TF, 25 C, 1 h; high values mean tight binding. The note with it: protein: recombinant; tags: N-terminal polyhistidine and DsRed monomer fusion (pET32a); label: CyDye5-dUTP incorporated in the synthesized complementary strand; 3' TTTTT single-stranded linker to array surface; dsDNA, one strand shown. The essentials: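 Binding signal is defined as the fluorescence intensity of each feature in arbitrary units, read on an Axon 4000B scanner. Transcription factors with N-terminal polyhistidine and DsRed fusions came from E. coli BL21-CodonPlus and were purified on Ni–NTA. They were incubated at 200 nM for 1 h at 25 °C on a custom Agilent array that had been made double-stranded with Cy5-dUTP, with 50 µM zinc acetate present, and the array was washed.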
With “TTTATTTTTAATTTTTTTGCGTTGGTGTGTGTTGTTCAATCGGAGTCACCTAGTGCAG”, the binding signal was 11200 fluorescence intensity (a.u.). Then “AACGAATGCTTAGGCCCAAACTACAACTTTCTCGTTTTCTCGGAGTCACCTAGTGCAG”, with 11000 fluorescence intensity (a.u.); and “GACGCGGCCCTCCGCCGACACCCTCGCTTCCTCTCCTGGTCGGAGTCACCTAGTGCAG”, with 8620 fluorescence intensity (a.u.); and “AGCGATGGTGGTGGTGGTGGTGGTGGTGGCTGGGTTGCTTCGGAGTCACCTAGTGCAG”, with 28200 fluorescence intensity (a.u.). With “GCTTCGCTTTGGTTTTGGTCCTCAAAACTTCCAGTCTGACCGGAGTCACCTAGTGCAG” the figure was 8370 fluorescence intensity (a.u.); with “ACCACTGTTTCGTCTGTTACTGCAGGATATCGTTCCGAAACGGAGTCACCTAGTGCAG”, 9630 fluorescence intensity (a.u.). Turning to “CTCTCACATCTTCTTTCTTTCCTTCTCTGGATCTCTTCCACGGAGTCACCTAGTGCAG”, the binding signal was 8560 fluorescence intensity (a.u.). Then “TCCACCTATGCCTCATCAATTCGCCATCTCTTATTCCTGTCGGAGTCACCTAGTGCAG”, with 9990 fluorescence intensity (a.u.). Take “TCTCCTCTCCTCTCCTCTCCTACTAGCGGCCAAGCTTTCACGGAGTCACCTAGTGCAG”: the binding signal was 8180 fluorescence intensity (a.u.). Then “AAGTTCGAGAAGACTTTGTTTTTGTTTTGTCTTAATTTCCCGGAGTCACCTAGTGCAG”, with 11700 fluorescence intensity (a.u.); and “TTCATGCAGTTTAATTAATTTTCTTCCTAATTTTTTACACCGGAGTCACCTAGTGCAG”, with 10000 fluorescence intensity (a.u.); and “CGGCTGTGTTCGTTATGTATGGTTGAGAACTTTTTTTCTCCGGAGTCACCTAGTGCAG”, with 11500 fluorescence intensity (a.u.).

Turning to “GGAATATATAAAGGGGCGCGGGTTGGGCGGGCGAGGAGGTCGGAGTCACCTAGTGCAG”, the binding signal is 11300 fluorescence intensity (a.u.). Then “CCAGTGTTGTAATCTTATAATTTTTTTCCTACTTATCAATCGGAGTCACCTAGTGCAG”, with 8920 fluorescence intensity (a.u.).

For the sequence “ATTTCTATTTTCTTTGTTCGCACGTATTTCTCTCTTTCTCCGGAGTCACCTAGTGCAG”, the binding signal is 10900 fluorescence intensity (a.u.). Consider “TCCGACTACACGCGGAGACTTACACCTTTGACAGACAACACGGAGTCACCTAGTGCAG”, for which the binding signal was 9220 fluorescence intensity (a.u.). Then “CCAATTTGTACCCGCGTGTCCGGTTGGTTGGCTGGTTGGTCGGAGTCACCTAGTGCAG”, with 9020 fluorescence intensity (a.u.).

For the sequence “TTCTAGTAGTACAGTACACCATCACTAACCTCCTTTTCATCGGAGTCACCTAGTGCAG”, the binding signal was 11500 fluorescence intensity (a.u.). Then “GTTTGCCCGCCGCGGCGCCGCCGCCGCCGCCGCCGATCCCCGGAGTCACCTAGTGCAG”, with 8290 fluorescence intensity (a.u.); and “ATGCAGCACGGGAGAAGGGGAGGGTGGCGGAAGGGCGAGGCGGAGTCACCTAGTGCAG”, with 9410 fluorescence intensity (a.u.); and “CTGTTACGCACTATTTTGATAATTAACCAACTGTTTTTCACGGAGTCACCTAGTGCAG”, with 8380 fluorescence intensity (a.u.).

As to “AGTGGTTCGTGCAGCCGGCTAGCCAGGTCTCTTCGTTTTTCGGAGTCACCTAGTGCAG”, the binding signal was 13100 fluorescence intensity (a.u.). With “CATGCTTTCATTCACCAGGTTCAAATTTTAATGTTTATAACGGAGTCACCTAGTGCAG” the figure was 10700 fluorescence intensity (a.u.). With “CACGTATTTCTCTCTTTCTCAATGCATCGGGGAGGACAACCGGAGTCACCTAGTGCAG” the figure was 8380 fluorescence intensity (a.u.); with “ACCTCAATGCTTATCTCCATCTACACTGTTGGACGGTTCACGGAGTCACCTAGTGCAG”, 8790 fluorescence intensity (a.u.); with “GTGAATGACATATAGGTCCCATTTATTCTTTTTATTTTTACGGAGTCACCTAGTGCAG”, 8420 fluorescence intensity (a.u.). With “AAATCGACGTGCGCGCCTTAATTTCTACAGTCCACTACCACGGAGTCACCTAGTGCAG” the figure was 10300 fluorescence intensity (a.u.); with “TCTCTGTGAATTCAATCTTTGTATAATATGTGTCGGTAATCGGAGTCACCTAGTGCAG”, 13400 fluorescence intensity (a.u.). Regarding “GCCGCCACATCGATCTACCTACGCATGCGTTTCCTCCTCCCGGAGTCACCTAGTGCAG”, the binding signal is 8670 fluorescence intensity (a.u.). With “TTTTGACTTGTCCATATCTTTCAGGATCCTCCTTTAGTTTCGGAGTCACCTAGTGCAG” the figure was 9240 fluorescence intensity (a.u.); with “GCACCGGACGTCCCACGTCGCTCCACGTCACCGATCCGCGCGGAGTCACCTAGTGCAG”, 8080 fluorescence intensity (a.u.). With “CCACCGCCCGCTCGACGCGCTCTCCCGCTTCCGCTCCATGCGGAGTCACCTAGTGCAG” the figure was 8970 fluorescence intensity (a.u.); with “TTGATTTTTTTTCTTGTTTTCTGAAGATTTTATTTACAAACGGAGTCACCTAGTGCAG”, 8960 fluorescence intensity (a.u.); with “ATTTTTTTGGGCGCGGGTTGGAGCCGGTTTGACTAAAAGGCGGAGTCACCTAGTGCAG”, 8310 fluorescence intensity (a.u.). With “ATACGTCTCTTTTCGAAACAATGAGCTTCACTTCTTTAAGCGGAGTCACCTAGTGCAG”, the binding signal was 8470 fluorescence intensity (a.u.). Take “CCGGAGGTGTTTCGTTTTGTTTTGAATTTTTTTTCCCTTTCGGAGTCACCTAGTGCAG”: the binding signal was 9230 fluorescence intensity (a.u.).

Take “TTCCATACCTCAGTCGCATGATACTACTACTAGTACTATTCGGAGTCACCTAGTGCAG”: the binding signal is 9300 fluorescence intensity (a.u.).

Consider “CGCCGTGCCCAACATCCTCTATCCACACACCGCTTGATTTCGGAGTCACCTAGTGCAG”, for which the binding signal was 9130 fluorescence intensity (a.u.).

On to “TGTGCCACTTTATGTCTGCCCTTCGTCTGTCATCTCTACTCGGAGTCACCTAGTGCAG”, for which the binding signal is 8670 fluorescence intensity (a.u.).

On to “GGTTGATCCGATTTTTTCTGTTTCTCTGCTTGTAGCAATGCGGAGTCACCTAGTGCAG”, for which the binding signal is 8200 fluorescence intensity (a.u.). Take “ACCGATCCCCATCGCCGCCGTCGCTCCACCGGCTCGCCCTCGGAGTCACCTAGTGCAG”: the binding signal is 8120 fluorescence intensity (a.u.). With “TTCGGGTTTTTTTTTTGTTTATTTTGTCTTTCGCTTTTCACGGAGTCACCTAGTGCAG” the figure was 14900 fluorescence intensity (a.u.); with “GAGTCGTGTTTGGTTGGTATGAAGATGTGTGATAAGGGCACGGAGTCACCTAGTGCAG”, 9610 fluorescence intensity (a.u.); with “AACGAATTTGAACATGCCCCATCCTTACCTAAGTCTAGTTCGGAGTCACCTAGTGCAG”, 15500 fluorescence intensity (a.u.). Take “AAACTTAAACATTTCGCTTCATTTCTTTTTGCCCCATTATCGGAGTCACCTAGTGCAG”: the binding signal was 8640 fluorescence intensity (a.u.). Then “CCGTTGTTGGGCATCTACATCTTAATCGCCGGTCGTCTCGCGGAGTCACCTAGTGCAG”, with 8320 fluorescence intensity (a.u.). Then “GCCTCGAGCTCCGTCAGACATGTTCAGTTTCATTATATTACGGAGTCACCTAGTGCAG”, with 8120 fluorescence intensity (a.u.); and “CGGTTGGTTGGCTGGTTGGTCGGCGAATTGCACATCTTGGCGGAGTCACCTAGTGCAG”, with 8210 fluorescence intensity (a.u.).

Regarding “GTCATATATCTGGTTTTGTGGTTGGAGGACGATTTTGTAACGGAGTCACCTAGTGCAG”, the binding signal is 9470 fluorescence intensity (a.u.).

Turning to “ACTGCGCTGACGCCCGCGGCCGCCGCGGCGTCGCCTGCCGCGGAGTCACCTAGTGCAG”, the binding signal was 8080 fluorescence intensity (a.u.).

For the sequence “TTGTGTCATGTAGGTCCTTAAACTCTCAAAATGCATATCTCGGAGTCACCTAGTGCAG”, the binding signal is 8760 fluorescence intensity (a.u.). Then “AATTTTGAGATTTCTTTTCATCGTAGTTTTTTCCCATACTCGGAGTCACCTAGTGCAG”, with 9260 fluorescence intensity (a.u.); and “GGAACGTCTGAACACACAAGCTATCGTCATCTGAACGCACCGGAGTCACCTAGTGCAG”, with 8240 fluorescence intensity (a.u.); and “TTTTTTCCGGCATCCAACGTCGCACATCCATCCACGTCATCGGAGTCACCTAGTGCAG”, with 11000 fluorescence intensity (a.u.).
